Source: PMC11599123

Sequences of proteins named here, by UniProt entry; tags and fusion partners are left off. A change or cut given only in a name is not applied to a line headed by its entry.
UniProt Q13153: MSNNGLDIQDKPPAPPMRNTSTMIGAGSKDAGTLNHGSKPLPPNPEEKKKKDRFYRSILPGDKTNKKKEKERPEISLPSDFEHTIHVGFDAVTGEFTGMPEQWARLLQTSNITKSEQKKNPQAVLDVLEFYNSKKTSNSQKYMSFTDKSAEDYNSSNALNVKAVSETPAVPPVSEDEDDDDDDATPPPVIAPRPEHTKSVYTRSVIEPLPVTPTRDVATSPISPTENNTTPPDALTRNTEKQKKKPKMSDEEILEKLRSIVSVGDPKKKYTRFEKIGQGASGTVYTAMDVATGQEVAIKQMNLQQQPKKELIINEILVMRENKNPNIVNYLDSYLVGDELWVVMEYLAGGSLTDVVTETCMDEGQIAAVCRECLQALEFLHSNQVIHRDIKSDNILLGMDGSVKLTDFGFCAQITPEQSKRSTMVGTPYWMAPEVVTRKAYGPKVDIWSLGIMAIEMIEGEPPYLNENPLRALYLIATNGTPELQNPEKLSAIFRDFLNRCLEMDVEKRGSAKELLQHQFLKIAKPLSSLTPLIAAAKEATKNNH
UniProt Q8C6B2: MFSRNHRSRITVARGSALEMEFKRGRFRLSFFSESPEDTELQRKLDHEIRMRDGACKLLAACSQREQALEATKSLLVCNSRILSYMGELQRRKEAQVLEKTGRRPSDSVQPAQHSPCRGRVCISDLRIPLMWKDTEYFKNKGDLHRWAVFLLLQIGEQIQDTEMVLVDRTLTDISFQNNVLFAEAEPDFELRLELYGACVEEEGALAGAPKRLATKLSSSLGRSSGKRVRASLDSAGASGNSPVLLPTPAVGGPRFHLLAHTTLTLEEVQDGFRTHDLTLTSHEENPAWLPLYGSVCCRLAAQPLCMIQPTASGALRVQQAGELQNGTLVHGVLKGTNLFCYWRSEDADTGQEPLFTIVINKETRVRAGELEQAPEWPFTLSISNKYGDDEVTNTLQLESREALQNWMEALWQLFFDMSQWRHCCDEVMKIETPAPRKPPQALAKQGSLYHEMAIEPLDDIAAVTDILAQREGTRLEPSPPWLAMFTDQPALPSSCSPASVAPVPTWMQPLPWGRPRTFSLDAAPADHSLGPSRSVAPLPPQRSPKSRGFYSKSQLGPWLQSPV
UniProt Q8CFN2: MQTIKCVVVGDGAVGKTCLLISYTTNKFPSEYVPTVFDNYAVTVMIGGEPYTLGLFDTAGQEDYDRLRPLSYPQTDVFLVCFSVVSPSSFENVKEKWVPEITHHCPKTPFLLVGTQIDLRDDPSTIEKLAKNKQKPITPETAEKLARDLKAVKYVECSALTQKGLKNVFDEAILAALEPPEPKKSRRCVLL
UniProt P61589: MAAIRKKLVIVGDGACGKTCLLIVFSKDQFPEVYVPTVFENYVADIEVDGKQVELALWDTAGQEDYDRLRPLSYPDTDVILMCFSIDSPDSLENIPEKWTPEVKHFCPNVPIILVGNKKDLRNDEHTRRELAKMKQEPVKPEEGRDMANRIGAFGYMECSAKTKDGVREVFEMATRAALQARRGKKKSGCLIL

Legend:
[1] = molecular target: GST-PBD (p21-binding domain of PAK1) (UniProt Q13153); assay: pull-down; Rho activation assay: GST-PBD, GST-RBD or GST-ELMO immobilised on glutathione agarose beads, RBL-2H3 lysates (resting or antigen-stimulated; WT, scrambled, RhoGDI knockdown or overexpression strains), 30 min in 50 mM Tris pH 7.5, 150 mM NaCl, 0.5 mM MgCl2, 1% Triton X-100; immunoblot; only the target purified
[2] = molecular target: GST-RBD (Rho-binding domain of Rhotekin) (UniProt Q8C6B2); assay: as above

binding [1]	binding [2]	Substance
binds	–	Cdc42, endogenous in RBL-2H3 cells (from UniProt Q8CFN2 1-191)
–	binds	RhoA, endogenous in RBL-2H3 cells (from UniProt P61589 1-193)

These are yes or no findings as the source states them, for the method shown. In cells and extracts the contact can be indirect. A result given as binding can be weak or reduced; the word gives no strength.
